In patent publication US20180265577A1:
Results are given in words; binding and its absence hold for the method and conditions named. Some binding calls cover weakened binding; strength is not graded here.

Chains of the proteins cited; added tags and fusions are not shown. Lines headed by an entry give the natural chain unless they say otherwise; changes in a name come on top. A line that says so, or that is headed by a name, gives the form on record, which may keep a tag or linker.
UniProt P10636: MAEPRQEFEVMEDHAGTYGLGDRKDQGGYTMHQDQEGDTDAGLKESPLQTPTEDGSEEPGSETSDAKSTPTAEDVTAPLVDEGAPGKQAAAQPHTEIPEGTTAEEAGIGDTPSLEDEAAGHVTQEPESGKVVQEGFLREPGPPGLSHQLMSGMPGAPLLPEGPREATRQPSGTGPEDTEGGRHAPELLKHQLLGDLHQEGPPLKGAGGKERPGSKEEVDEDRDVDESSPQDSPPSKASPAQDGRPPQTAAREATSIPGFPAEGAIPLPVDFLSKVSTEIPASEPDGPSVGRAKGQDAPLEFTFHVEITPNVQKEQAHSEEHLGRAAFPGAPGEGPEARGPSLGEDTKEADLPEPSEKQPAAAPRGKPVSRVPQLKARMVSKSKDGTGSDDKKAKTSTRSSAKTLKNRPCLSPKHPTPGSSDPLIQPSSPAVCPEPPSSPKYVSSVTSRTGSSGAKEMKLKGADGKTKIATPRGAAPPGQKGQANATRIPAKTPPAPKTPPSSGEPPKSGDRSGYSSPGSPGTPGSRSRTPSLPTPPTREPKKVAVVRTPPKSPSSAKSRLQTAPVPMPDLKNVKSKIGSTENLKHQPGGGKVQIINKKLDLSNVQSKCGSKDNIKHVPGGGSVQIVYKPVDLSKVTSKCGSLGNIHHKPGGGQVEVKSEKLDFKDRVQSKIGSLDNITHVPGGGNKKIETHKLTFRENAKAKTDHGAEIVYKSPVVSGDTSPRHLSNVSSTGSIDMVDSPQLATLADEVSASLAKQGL
aggregated tau in FFPE brain sections of an AD patient (P10636, form named): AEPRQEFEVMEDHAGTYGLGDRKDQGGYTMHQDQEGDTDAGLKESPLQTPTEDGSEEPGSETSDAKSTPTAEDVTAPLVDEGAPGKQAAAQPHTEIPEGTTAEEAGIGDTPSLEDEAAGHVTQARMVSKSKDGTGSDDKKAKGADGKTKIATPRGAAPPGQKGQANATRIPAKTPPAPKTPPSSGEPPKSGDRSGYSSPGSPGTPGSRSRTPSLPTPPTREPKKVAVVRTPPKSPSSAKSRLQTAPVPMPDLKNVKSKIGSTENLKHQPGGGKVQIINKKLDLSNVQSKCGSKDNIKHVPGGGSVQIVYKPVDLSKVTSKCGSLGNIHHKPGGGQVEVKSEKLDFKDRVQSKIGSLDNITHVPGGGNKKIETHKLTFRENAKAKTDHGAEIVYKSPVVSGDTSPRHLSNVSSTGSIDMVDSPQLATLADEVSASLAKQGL
aggregated tau in FFPE brain sections of a PD (Pick's disease) patient (P10636, form named): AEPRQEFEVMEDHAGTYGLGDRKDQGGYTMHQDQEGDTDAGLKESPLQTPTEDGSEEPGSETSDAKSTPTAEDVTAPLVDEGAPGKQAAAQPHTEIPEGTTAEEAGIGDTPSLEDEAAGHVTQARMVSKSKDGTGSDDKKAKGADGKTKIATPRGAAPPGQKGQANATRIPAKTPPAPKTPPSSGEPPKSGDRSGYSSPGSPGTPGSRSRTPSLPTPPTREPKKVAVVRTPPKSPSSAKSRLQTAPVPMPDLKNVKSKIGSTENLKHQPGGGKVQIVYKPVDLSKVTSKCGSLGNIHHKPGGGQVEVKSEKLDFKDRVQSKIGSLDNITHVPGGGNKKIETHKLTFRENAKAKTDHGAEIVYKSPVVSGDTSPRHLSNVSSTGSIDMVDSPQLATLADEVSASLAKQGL

Legend:
[1] = molecular target: aggregated tau in FFPE brain sections of a "normal" individual (displaying minimal tau aggregation) (human) (UniProt P10636); assay: immunohistochemistry on FFPE brain sections
[2] = molecular target: aggregated tau in FFPE brain sections of a PD (Pick's disease) patient (human) (UniProt P10636); assay: immunohistochemistry on FFPE brain sections
[3] = molecular target: aggregated tau in FFPE brain sections of an AD patient (human) (UniProt P10636); assay: immunohistochemistry on FFPE brain sections
[4] = molecular target: recombinant tau (rTau) (UniProt P10636); assay: direct ELISA on rTau coated at 15 ng/ml after accelerated degradation
[5] = molecular target: aggregated tau in FFPE brain sections of a "normal" individual (displaying minimal tau aggregation) (human) (UniProt P10636); assay: immunohistochemistry on FFPE brain sections, semi-quantitative score (mild, +)
[6] = molecular target: aggregated tau in FFPE brain sections of a PD (Pick's disease) patient (human) (UniProt P10636); assay: immunohistochemistry on FFPE brain sections, semi-quantitative score (severe, +++)
[7] = molecular target: aggregated tau in FFPE brain sections of an AD patient (human) (UniProt P10636); assay: as above

Measured: binding

B1: exemplified tau monoclonal antibody of Example 1 (antibody, human IgG4 S228P, kappa, F234A L235A, V domains shown)
VH: EVQLVQSGAEVKKPGESLKISCKGSGYTFSNYWIEWVRQMPGKGLEWMGEILPGSDSIKYEKNFKGQVTISADKSISTAYLQWSSLKASDTAMYYCARRGNYVDDWGQGTLVTVSS
VL: EIVLTQSPGTLSLSPGERATLSCRSSQSLVHSNQNTYLHWYQQKPGQAPRLLIYKVDNRFSGIPDRFSGSGSGTDFTLTISRLEPEDFAVYYCSQSTLVPLTFGGGTKVEIKR
binds: all assays above
